Molecules are shown by their SMILES. Entries after “also recorded” stand apart in the source; their conditions may differ.

These results are taken from patent US7253149B2, “Compounds and methods for modulating cell-adhesion mediated drug resistance” (University of South Florida, priority 2000, dated 2007).

The test system of this data set is FN-adhered myeloma cells. As to the kind of experiment: Intracellular drug accumulation assay by flow cytometry. In kind it is cell-based, human. The settings on record: 10 uM doxorubicin, one hour, after 24 hour on plastic, BSA or FN.

In the case of `COc1cccc2c1C(=O)c1c(O)c3c(c(O)c1C2=O)C[C@@](O)(C(=O)CO)C[C@@H]3O[C@H]1C[C@H](N)[C@H](O)[C@H](C)O1` [doxorubicin, Doxorubicin], the “intracellular doxorubicin concentration, FN-adhered vs non-adhered” value was “equal to that seen in non-adhered controls; also recorded: unaffected”.
